# PubChem BioAssay AID743121 | NCATS, 2013
# Test: 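Knock-downs that sensitise breast cancer cells to camptothecin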 (primary screen)
# Cell system: MDA-MB-231 cells, a human breast cancer line
# Knock-down reagent: single siRNA against human genes, 20 nM siRNA (0.8 pmol per well)
# Time to read-out: 120 h (drug added 48 h after transfection, read 72 h later)
# Challenge: camptothecin 20 nM (about EC30) for 72 h; vehicle 0.1% DMSO in parallel plates
# Measured: 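Cell viability by ATP luminescence (CellTiter-Glo) as % of non-targeting siRNA wells, and the log2 ratio of viability without drug over viability with camptothecin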
# Reading the numbers: log2 vehicle/camptothecin viability: higher = stronger sensitisation to camptothecin; viability with camptothecin: higher = more viable cells
# Rule for the call: 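Each gene scored by redundant siRNA activity (RSA) over its individual siRNA ratios; a gene is called active at p < 0.001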
# The whole screen tested about 26,000 reagents; shown is a part drawn at random. Of all reagents, 167 (0.63%) got an active call. 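Calls are per gene from RSA p-values that are not deposited; an individual active-marked siRNA can sensitise only weakly.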 The numbers tell different reagents against one gene apart. Not all columns of the deposit are shown.
Target gene,reagent no.,log2 vehicle/camptothecin viability,viability with camptothecin (% of control),activity call
SLC7A14 (GeneID 57709),1,-0.243,39.3,inactive
SLC7A14 (GeneID 57709),2,-0.361,62.8,inactive
SLC7A14 (GeneID 57709),3,-0.337,97.4,inactive
SLC7A14 (GeneID 57709),4,-0.392,74.1,inactive
BTK (GeneID 695),1,-0.197,125,inactive
BTK (GeneID 695),2,0.342,57.8,inactive
BTK (GeneID 695),3,0.286,77.8,inactive
BTK (GeneID 695),4,-0.491,79.8,inactive
ADGRA1 (GeneID 84435),1,-0.0465,51.9,inactive
ADGRA1 (GeneID 84435),2,-0.388,96.5,inactive
ADGRA1 (GeneID 84435),3,-0.303,103,inactive
ADGRA1 (GeneID 84435),4,-0.251,77.9,inactive
SMYD5 (GeneID 10322),1,-0.438,96.2,inactive
SMYD5 (GeneID 10322),2,-0.0738,86.6,inactive
SMYD5 (GeneID 10322),3,0.1,44.3,inactive
PDC (GeneID 5132),1,-0.173,129,inactive
PDC (GeneID 5132),2,-0.0699,72.1,inactive
PDC (GeneID 5132),3,0.292,20.4,inactive
TAB1 (GeneID 10454),1,0.301,38.9,inactive
TAB1 (GeneID 10454),2,0.0242,62.3,inactive
TAB1 (GeneID 10454),3,-0.0116,48.9,inactive
TAB1 (GeneID 10454),4,-0.193,71.6,inactive
KCND3 (GeneID 3752),1,0.0906,75.4,inactive
KCND3 (GeneID 3752),2,-0.606,85.9,inactive
KCND3 (GeneID 3752),3,-0.168,50.9,inactive
KCND3 (GeneID 3752),4,-0.171,96.1,inactive
SLC2A1 (GeneID 6513),1,-0.155,127,inactive
SLC2A1 (GeneID 6513),2,-0.656,92.3,inactive
SLC2A1 (GeneID 6513),3,0.151,57,inactive
F10 (GeneID 2159),1,-0.275,74.1,inactive
F10 (GeneID 2159),2,-0.106,99.7,inactive
F10 (GeneID 2159),3,-0.401,103,inactive
FGA (GeneID 2243),1,-0.186,91.6,inactive
FGA (GeneID 2243),2,-0.542,74.9,inactive
FGA (GeneID 2243),3,-0.644,83.6,inactive
PAM (GeneID 5066),1,-0.367,88.5,inactive
PAM (GeneID 5066),2,-0.192,71,inactive
PAM (GeneID 5066),3,0.0791,113,inactive
PAM (GeneID 5066),4,-0.0472,82.8,inactive
NPC2 (GeneID 10577),1,-0.213,72.9,inactive
NPC2 (GeneID 10577),2,-0.204,97.2,inactive
NPC2 (GeneID 10577),3,-0.136,105,inactive
NPC2 (GeneID 10577),4,-0.041,61.5,inactive
ESM1 (GeneID 11082),1,-0.108,81.1,inactive
ESM1 (GeneID 11082),2,-0.012,31.8,inactive
ESM1 (GeneID 11082),3,0.0161,95.5,inactive
ESM1 (GeneID 11082),4,-0.191,61.1,inactive
